Measurements from paper PMC6609562, “A new split‐luciferase complementation assay identifies pentachlorophenol as an inhibitor of apoptosome formation” (FEBS Open Bio, 2019).
No constants are given. Whether binding was seen depends on the method and setting. Some binding calls cover weakened binding; strength is not graded here.

T1: Purified recombinant Apaf-1 (rApaf-1) (human), O14727
T1 chain: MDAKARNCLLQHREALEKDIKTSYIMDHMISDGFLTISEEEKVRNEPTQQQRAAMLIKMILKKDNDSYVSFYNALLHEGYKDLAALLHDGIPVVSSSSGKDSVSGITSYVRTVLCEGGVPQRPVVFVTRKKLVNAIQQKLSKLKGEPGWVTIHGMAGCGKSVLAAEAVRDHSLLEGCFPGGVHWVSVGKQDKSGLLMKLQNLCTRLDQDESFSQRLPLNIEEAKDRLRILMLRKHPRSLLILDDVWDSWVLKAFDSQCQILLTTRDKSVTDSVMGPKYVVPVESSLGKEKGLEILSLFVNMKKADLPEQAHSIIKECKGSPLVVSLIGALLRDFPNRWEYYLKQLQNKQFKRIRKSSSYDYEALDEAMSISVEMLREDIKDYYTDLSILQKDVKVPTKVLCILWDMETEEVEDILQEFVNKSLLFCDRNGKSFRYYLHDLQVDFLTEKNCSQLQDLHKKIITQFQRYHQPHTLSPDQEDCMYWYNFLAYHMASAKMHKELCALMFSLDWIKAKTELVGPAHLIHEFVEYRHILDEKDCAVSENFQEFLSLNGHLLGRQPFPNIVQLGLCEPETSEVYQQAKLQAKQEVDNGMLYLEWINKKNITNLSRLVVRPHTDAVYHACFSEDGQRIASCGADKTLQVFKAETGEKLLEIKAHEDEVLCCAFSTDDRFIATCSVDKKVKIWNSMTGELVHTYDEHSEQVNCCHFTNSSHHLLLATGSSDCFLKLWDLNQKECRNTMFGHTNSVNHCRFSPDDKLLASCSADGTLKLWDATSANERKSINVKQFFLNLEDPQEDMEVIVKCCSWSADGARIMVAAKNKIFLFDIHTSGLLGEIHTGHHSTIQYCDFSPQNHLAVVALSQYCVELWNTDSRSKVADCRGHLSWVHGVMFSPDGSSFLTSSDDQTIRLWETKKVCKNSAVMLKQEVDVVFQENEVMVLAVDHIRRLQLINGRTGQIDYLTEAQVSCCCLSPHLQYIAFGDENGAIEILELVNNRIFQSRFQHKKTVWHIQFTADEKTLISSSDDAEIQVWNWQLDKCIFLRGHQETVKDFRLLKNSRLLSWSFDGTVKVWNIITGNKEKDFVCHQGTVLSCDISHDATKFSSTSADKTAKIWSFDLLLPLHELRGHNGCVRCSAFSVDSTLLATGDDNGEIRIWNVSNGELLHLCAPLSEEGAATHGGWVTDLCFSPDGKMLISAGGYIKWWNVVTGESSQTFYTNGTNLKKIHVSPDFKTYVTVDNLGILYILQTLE

T2: Apoptotic Protease-Activating Factor-1 (Apaf-1), endogenous in HEK 293 S-100 extract (human (endogenous in HEK 293)), O14727
T2 chain: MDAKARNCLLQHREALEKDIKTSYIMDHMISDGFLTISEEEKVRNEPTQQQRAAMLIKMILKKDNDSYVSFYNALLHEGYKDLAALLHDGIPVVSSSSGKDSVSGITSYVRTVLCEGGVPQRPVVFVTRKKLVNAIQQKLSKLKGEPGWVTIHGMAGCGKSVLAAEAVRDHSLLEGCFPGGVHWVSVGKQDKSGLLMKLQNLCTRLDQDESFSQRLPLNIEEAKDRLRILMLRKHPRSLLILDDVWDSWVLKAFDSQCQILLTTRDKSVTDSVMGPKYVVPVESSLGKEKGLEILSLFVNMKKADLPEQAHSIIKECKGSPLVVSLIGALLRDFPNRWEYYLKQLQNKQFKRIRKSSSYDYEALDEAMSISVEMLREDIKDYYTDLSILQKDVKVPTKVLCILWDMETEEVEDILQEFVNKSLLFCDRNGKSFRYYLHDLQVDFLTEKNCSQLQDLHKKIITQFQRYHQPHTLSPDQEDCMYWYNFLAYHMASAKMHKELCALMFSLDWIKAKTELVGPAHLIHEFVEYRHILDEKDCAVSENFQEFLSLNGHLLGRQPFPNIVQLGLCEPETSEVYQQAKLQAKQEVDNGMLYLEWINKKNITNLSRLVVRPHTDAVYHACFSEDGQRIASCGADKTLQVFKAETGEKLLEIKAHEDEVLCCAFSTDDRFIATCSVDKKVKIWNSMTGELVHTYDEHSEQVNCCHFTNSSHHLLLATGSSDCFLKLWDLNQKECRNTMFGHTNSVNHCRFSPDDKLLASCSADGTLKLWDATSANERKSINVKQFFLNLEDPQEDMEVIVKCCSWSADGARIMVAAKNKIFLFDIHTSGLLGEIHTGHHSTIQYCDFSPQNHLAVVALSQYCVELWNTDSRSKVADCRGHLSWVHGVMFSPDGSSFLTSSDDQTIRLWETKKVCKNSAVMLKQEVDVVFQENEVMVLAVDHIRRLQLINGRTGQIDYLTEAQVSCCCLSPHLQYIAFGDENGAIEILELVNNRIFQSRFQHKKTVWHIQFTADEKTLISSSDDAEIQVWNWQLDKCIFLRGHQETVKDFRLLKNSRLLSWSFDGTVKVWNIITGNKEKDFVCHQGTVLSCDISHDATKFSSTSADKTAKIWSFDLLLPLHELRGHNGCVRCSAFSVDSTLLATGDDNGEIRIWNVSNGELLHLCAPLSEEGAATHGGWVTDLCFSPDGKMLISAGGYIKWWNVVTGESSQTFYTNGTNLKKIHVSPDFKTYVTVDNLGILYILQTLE


Legend:
[1] = molecular target: T1, Purified recombinant Apaf-1 (rApaf-1) …; experiment: SEC; purified rApaf-1 with cytochrome c and dATP; gel filtration, fractions analysed by dot blot with an anti-Apaf-1 antibody; markers thyroglobulin (669 kDa) and aldolase (158 kDa); both purified; details: remark: other sources report otherwise
[2] = molecular target: T2, Apoptotic Protease-Activating Factor-1 …; experiment: SEC; 1 mL S-100 extract (untransfected HEK 293, or Nluc-Apaf1 and Cluc-Apaf1 extracts mixed 1:1) incubated for 15 min in the presence and absence of dATP/Cc, Sephacryl 300 HR column; fractions concentrated and immunoblotted for Apaf-1; details: remark: other sources report otherwise

Row | binding [1] | binding [2] | Binder
1 | binds |  | Purified recombinant Apaf-1 (rApaf-1), O14727 1-1248 (protein) MDAKARNCLLQHREALEKDIKTSYIMDHMISDGFLTISEEEKVRNEPTQQQRAAMLIKMILKKDNDSYVSFYNALLHEGYKDLAALLHDGIPVVSSSSGKDSVSGITSYVRTVLCEGGVPQRPVVFVTRKKLVNAIQQKLSKLKGEPGWVTIHGMAGCGKSVLAAEAVRDHSLLEGCFPGGVHWVSVGKQDKSGLLMKLQNLCTRLDQDESFSQRLPLNIEEAKDRLRILMLRKHPRSLLILDDVWDSWVLKAFDSQCQILLTTRDKSVTDSVMGPKYVVPVESSLGKEKGLEILSLFVNMKKADLPEQAHSIIKECKGSPLVVSLIGALLRDFPNRWEYYLKQLQNKQFKRIRKSSSYDYEALDEAMSISVEMLREDIKDYYTDLSILQKDVKVPTKVLCILWDMETEEVEDILQEFVNKSLLFCDRNGKSFRYYLHDLQVDFLTEKNCSQLQDLHKKIITQFQRYHQPHTLSPDQEDCMYWYNFLAYHMASAKMHKELCALMFSLDWIKAKTELVGPAHLIHEFVEYRHILDEKDCAVSENFQEFLSLNGHLLGRQPFPNIVQLGLCEPETSEVYQQAKLQAKQEVDNGMLYLEWINKKNITNLSRLVVRPHTDAVYHACFSEDGQRIASCGADKTLQVFKAETGEKLLEIKAHEDEVLCCAFSTDDRFIATCSVDKKVKIWNSMTGELVHTYDEHSEQVNCCHFTNSSHHLLLATGSSDCFLKLWDLNQKECRNTMFGHTNSVNHCRFSPDDKLLASCSADGTLKLWDATSANERKSINVKQFFLNLEDPQEDMEVIVKCCSWSADGARIMVAAKNKIFLFDIHTSGLLGEIHTGHHSTIQYCDFSPQNHLAVVALSQYCVELWNTDSRSKVADCRGHLSWVHGVMFSPDGSSFLTSSDDQTIRLWETKKVCKNSAVMLKQEVDVVFQENEVMVLAVDHIRRLQLINGRTGQIDYLTEAQVSCCCLSPHLQYIAFGDENGAIEILELVNNRIFQSRFQHKKTVWHIQFTADEKTLISSSDDAEIQVWNWQLDKCIFLRGHQETVKDFRLLKNSRLLSWSFDGTVKVWNIITGNKEKDFVCHQGTVLSCDISHDATKFSSTSADKTAKIWSFDLLLPLHELRGHNGCVRCSAFSVDSTLLATGDDNGEIRIWNVSNGELLHLCAPLSEEGAATHGGWVTDLCFSPDGKMLISAGGYIKWWNVVTGESSQTFYTNGTNLKKIHVSPDFKTYVTVDNLGILYILQTLE
2 |  | binds | Apoptotic Protease-Activating Factor-1 (Apaf-1), endogenous in HEK 293 S-100 extract, O14727 1-1248 (protein) MDAKARNCLLQHREALEKDIKTSYIMDHMISDGFLTISEEEKVRNEPTQQQRAAMLIKMILKKDNDSYVSFYNALLHEGYKDLAALLHDGIPVVSSSSGKDSVSGITSYVRTVLCEGGVPQRPVVFVTRKKLVNAIQQKLSKLKGEPGWVTIHGMAGCGKSVLAAEAVRDHSLLEGCFPGGVHWVSVGKQDKSGLLMKLQNLCTRLDQDESFSQRLPLNIEEAKDRLRILMLRKHPRSLLILDDVWDSWVLKAFDSQCQILLTTRDKSVTDSVMGPKYVVPVESSLGKEKGLEILSLFVNMKKADLPEQAHSIIKECKGSPLVVSLIGALLRDFPNRWEYYLKQLQNKQFKRIRKSSSYDYEALDEAMSISVEMLREDIKDYYTDLSILQKDVKVPTKVLCILWDMETEEVEDILQEFVNKSLLFCDRNGKSFRYYLHDLQVDFLTEKNCSQLQDLHKKIITQFQRYHQPHTLSPDQEDCMYWYNFLAYHMASAKMHKELCALMFSLDWIKAKTELVGPAHLIHEFVEYRHILDEKDCAVSENFQEFLSLNGHLLGRQPFPNIVQLGLCEPETSEVYQQAKLQAKQEVDNGMLYLEWINKKNITNLSRLVVRPHTDAVYHACFSEDGQRIASCGADKTLQVFKAETGEKLLEIKAHEDEVLCCAFSTDDRFIATCSVDKKVKIWNSMTGELVHTYDEHSEQVNCCHFTNSSHHLLLATGSSDCFLKLWDLNQKECRNTMFGHTNSVNHCRFSPDDKLLASCSADGTLKLWDATSANERKSINVKQFFLNLEDPQEDMEVIVKCCSWSADGARIMVAAKNKIFLFDIHTSGLLGEIHTGHHSTIQYCDFSPQNHLAVVALSQYCVELWNTDSRSKVADCRGHLSWVHGVMFSPDGSSFLTSSDDQTIRLWETKKVCKNSAVMLKQEVDVVFQENEVMVLAVDHIRRLQLINGRTGQIDYLTEAQVSCCCLSPHLQYIAFGDENGAIEILELVNNRIFQSRFQHKKTVWHIQFTADEKTLISSSDDAEIQVWNWQLDKCIFLRGHQETVKDFRLLKNSRLLSWSFDGTVKVWNIITGNKEKDFVCHQGTVLSCDISHDATKFSSTSADKTAKIWSFDLLLPLHELRGHNGCVRCSAFSVDSTLLATGDDNGEIRIWNVSNGELLHLCAPLSEEGAATHGGWVTDLCFSPDGKMLISAGGYIKWWNVVTGESSQTFYTNGTNLKKIHVSPDFKTYVTVDNLGILYILQTLE
